Data: the M2OR odorant receptor database
Substitutions are numbered along the chain they refer to. Only a part is listed here, and it is no random draw. The calls were merged from several studies; some rest on single wells. Some of the results follow.

Chains of the proteins cited; added tags and fusions are not shown. Chains listed by the source or under a name are the forms on record and can include a tag or linker.
OR7D4, as listed by the source: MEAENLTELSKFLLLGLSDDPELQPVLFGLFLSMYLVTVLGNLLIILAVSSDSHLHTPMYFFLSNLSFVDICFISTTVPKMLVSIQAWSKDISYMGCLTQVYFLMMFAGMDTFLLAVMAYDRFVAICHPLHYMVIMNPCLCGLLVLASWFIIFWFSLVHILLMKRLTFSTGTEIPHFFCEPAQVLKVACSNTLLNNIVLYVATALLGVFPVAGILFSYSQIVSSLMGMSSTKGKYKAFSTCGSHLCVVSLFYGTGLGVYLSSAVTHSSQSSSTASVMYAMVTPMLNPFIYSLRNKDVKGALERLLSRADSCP

test system: T1, OR7D2; conditions: stereoisomer not certain
T1 sequence (whole entry): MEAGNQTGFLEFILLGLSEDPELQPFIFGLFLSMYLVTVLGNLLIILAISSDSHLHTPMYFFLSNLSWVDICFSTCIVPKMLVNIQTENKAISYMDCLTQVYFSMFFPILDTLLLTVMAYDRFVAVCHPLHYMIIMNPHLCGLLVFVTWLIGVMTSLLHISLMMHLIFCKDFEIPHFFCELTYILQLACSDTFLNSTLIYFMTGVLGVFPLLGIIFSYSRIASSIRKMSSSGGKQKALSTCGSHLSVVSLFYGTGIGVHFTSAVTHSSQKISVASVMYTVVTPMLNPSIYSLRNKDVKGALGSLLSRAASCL
Procedure, shortened: (§1)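 Transient luciferase assays in mammalian cell lines were common, though methods varied by source. The values come from published papers and their supplementary material, with extra details from the original authors when needed. Responsive refers to a measured signal the original authors judged statistically different from baseline, and non-responsive (inactive) to the remainder.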

SMILES	odorant receptor agonist call;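 note: active if original authors judged signal statistically different from baseline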
CCCCOC(C)=O	inactive
CS	inactive
CCC(C)=O	inactive

molecular target: T2, OR7D4 (Homo sapiens) (UniProt Q8NG98); conditions: stereoisomer not certain
T2 sequence (whole entry): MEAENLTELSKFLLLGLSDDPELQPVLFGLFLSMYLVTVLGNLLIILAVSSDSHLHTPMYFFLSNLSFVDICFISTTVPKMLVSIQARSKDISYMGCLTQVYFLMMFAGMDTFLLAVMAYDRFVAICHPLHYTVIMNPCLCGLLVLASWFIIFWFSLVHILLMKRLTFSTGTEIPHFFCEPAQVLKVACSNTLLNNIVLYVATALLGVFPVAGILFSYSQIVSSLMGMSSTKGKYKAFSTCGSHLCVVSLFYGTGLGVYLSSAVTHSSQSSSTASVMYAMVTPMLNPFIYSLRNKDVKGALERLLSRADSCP
Procedure, shortened: as §1

SMILES	odorant receptor agonist call;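 note: active if original authors judged signal statistically different from baseline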
CCCCOC(C)=O	inactive
CCOc1cc(C=O)ccc1O	inactive
CS	inactive
CCC(C)=O	inactive

test system: T3, OR7D4; conditions: stereoisomer not certain
T3 sequence (whole entry): T2 sequence (whole entry) with R88W, T133M
Procedure, shortened: as §1

SMILES	odorant receptor agonist call;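 note: active if original authors judged signal statistically different from baseline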
CCCCOC(C)=O	inactive
CCOc1cc(C=O)ccc1O	inactive
CS	inactive
CCC(C)=O	inactive

molecular target: T4, OR7G1 (Homo sapiens) (UniProt Q8NGA0); conditions: stereoisomer not certain
T4 sequence (whole entry): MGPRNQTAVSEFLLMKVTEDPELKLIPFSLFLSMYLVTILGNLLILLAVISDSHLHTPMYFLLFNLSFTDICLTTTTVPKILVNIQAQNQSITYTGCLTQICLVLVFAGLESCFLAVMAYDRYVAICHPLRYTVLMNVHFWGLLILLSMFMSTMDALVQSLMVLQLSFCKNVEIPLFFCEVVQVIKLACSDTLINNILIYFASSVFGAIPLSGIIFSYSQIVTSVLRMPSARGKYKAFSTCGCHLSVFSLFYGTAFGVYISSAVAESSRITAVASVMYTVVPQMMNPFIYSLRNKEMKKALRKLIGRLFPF
Procedure, shortened: as §1

SMILES	odorant receptor agonist call;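 note: active if original authors judged signal statistically different from baseline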
CCCCOC(C)=O	inactive
CS	inactive
CCC(C)=O	inactive

molecular target: T5, OR7G2 (Homo sapiens) (UniProt Q8NG99); conditions: stereoisomer not certain
T5 sequence (whole entry): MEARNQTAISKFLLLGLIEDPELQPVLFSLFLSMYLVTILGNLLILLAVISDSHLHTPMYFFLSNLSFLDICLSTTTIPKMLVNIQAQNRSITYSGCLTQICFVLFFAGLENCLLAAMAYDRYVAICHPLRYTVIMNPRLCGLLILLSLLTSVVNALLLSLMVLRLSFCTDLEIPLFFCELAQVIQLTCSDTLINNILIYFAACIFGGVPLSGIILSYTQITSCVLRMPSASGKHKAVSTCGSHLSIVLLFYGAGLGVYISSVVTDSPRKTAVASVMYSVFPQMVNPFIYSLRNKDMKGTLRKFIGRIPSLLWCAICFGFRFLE
Procedure, shortened: as §1

SMILES	odorant receptor agonist call;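 note: active if original authors judged signal statistically different from baseline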
CCCCOC(C)=O	inactive
CS	inactive
CCC(C)=O	inactive

test system: T6, OR7G2; conditions: stereoisomer not certain
T6 sequence (whole entry): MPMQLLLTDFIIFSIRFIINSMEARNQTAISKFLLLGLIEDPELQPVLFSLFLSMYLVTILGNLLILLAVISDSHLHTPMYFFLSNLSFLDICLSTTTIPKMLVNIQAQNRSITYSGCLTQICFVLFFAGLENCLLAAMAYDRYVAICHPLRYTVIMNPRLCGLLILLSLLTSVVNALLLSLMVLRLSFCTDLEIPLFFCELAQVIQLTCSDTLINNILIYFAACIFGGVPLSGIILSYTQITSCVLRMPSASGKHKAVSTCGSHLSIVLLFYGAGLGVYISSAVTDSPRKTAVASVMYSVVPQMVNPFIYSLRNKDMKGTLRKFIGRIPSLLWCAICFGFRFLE
Procedure, shortened: as §1

SMILES	odorant receptor agonist call;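 note: active if original authors judged signal statistically different from baseline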
CCCCOC(C)=O	inactive
CS	inactive
CCC(C)=O	inactive

molecular target: T7, OR7G3 (Homo sapiens) (UniProt Q8NG95); conditions: stereoisomer not certain
T7 sequence (whole entry): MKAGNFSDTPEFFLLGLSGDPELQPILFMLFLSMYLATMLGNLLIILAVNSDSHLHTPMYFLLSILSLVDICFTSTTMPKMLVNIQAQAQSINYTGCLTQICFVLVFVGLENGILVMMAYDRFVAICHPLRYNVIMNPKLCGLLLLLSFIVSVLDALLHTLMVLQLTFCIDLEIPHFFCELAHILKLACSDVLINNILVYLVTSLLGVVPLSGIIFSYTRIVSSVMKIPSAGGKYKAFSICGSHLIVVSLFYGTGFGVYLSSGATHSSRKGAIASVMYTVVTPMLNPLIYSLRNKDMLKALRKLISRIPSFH
Procedure, shortened: as §1

SMILES	odorant receptor agonist call
CCCCOC(C)=O	inactive
CS	inactive
CCC(C)=O	inactive

test system: T8, OR8A1; conditions: stereoisomer not certain
T8 sequence (whole entry): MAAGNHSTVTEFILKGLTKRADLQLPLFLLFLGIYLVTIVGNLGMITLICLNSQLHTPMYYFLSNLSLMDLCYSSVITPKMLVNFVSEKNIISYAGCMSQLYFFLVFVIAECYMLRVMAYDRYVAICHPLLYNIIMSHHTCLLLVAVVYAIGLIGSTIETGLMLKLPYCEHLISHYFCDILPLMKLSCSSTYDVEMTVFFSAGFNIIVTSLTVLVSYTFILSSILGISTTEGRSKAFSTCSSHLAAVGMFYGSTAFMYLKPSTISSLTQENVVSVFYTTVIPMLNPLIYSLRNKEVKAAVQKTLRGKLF
Procedure, shortened: as §1

SMILES	odorant receptor agonist call
CCCCOC(C)=O	inactive
CS	inactive
CCC(C)=O	inactive

molecular target: T9, OR8B12 (Homo sapiens) (UniProt Q8NGG6); conditions: stereoisomer not certain
T9 sequence (whole entry): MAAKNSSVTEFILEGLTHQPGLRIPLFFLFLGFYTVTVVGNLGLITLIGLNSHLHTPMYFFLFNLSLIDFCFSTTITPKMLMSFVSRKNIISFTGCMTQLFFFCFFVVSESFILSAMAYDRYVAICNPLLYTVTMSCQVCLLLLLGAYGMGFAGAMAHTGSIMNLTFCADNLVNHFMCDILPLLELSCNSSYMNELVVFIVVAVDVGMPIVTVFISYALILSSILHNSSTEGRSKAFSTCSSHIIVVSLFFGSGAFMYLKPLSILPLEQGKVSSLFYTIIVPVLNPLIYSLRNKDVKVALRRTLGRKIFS
Procedure, shortened: as §1

SMILES	odorant receptor agonist call
CCCCOC(C)=O	inactive
CS	inactive
CCC(C)=O	inactive

molecular target: T10, OR8B2 (Homo sapiens) (UniProt Q96RD0); conditions: stereoisomer not certain
T10 sequence (whole entry): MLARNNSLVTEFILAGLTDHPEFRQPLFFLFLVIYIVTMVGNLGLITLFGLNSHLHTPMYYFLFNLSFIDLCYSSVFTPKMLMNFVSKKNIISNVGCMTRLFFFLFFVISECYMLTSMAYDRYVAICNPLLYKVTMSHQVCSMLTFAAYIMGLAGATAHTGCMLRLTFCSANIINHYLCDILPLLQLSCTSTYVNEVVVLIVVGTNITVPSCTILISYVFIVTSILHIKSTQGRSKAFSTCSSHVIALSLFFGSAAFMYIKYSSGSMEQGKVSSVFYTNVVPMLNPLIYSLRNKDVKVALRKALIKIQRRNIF
Procedure, shortened: as §1

SMILES	odorant receptor agonist call
CCCCOC(C)=O	inactive
CS	inactive
